Some of the results follow. Shown are side measurements of this screen, not its main read-out; they come without a call. Most of these compounds were active or inconclusive in the main read-out, so they are no random draw. Potencies come from curve fits of mixed quality, noted in brackets.
Assay: qHTS Assay for Lipid Storage Modulators in Drosophila S3 Cells;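 for cell number change: cells counted by Cell Tracker Red CMTPX staining in the red channel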
Details: BODIPY lipid droplet fluorescence, 18-24 h; for cell number change: measured here: cell count max response, cells fed with added oleic acid
Method in brief: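 Drosophila S3 cells got compounds at several concentrations plus oleic acid (400 uM solution). Laser-scanning cytometry with 488 nm excitation read lipid droplets at 500-530 nm and cells at 575-640 nm. Percent activity was relative to 20 uM Triacsin C.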

[1] = measured here: cell number channel AC50, cells fed with added oleic acid
[2] = measured here: lipid fluorescence (Fed channel) AC50, cells fed with added oleic acid

Compound	cell number change [%]	AC50 [1]	AC50 [2]
O=C(NNc1ccc(-c2csnn2)cc1)c1ccccc1C(F)(F)F	14.5	3.66 µM [falling, single point]	4.11 µM [falling, single point]
COc1cc(SC)ccc1C(=O)Nc1cccc(C2OCCCO2)c1	-3.81		
O=C(N/N=C/c1cccc(O)c1)c1ccc(COc2cccc3cccnc23)cc1	-7.73		0.231 µM [rising, single point]
C/C(CC(=O)Nc1ccccc1C#N)=N\NC(=O)c1ccncc1	-12.8		6.51 µM [falling, single point]
Cc1ccccc1OCCCC(=O)Nc1nccs1	-4.01		29.1 µM [rising, single point]
O=C(c1ccc(Cl)cc1)[C@@H]1[C@@H]2C(=O)N(c3cccc4ccccc34)C(=O)[C@@H]2C2c3ccccc3C=NN21 (stereo partly specified)	-15.3		18.4 µM [rising, single point]
O=C(NCCCN1CCCCCC1)c1cc2c(=O)oc3ccccc3c2s1	-5.56		
O=C(NCCc1ccc(F)cc1)c1ccc(Cl)c(S(=O)(=O)N2CCOCC2)c1	-28.2		7.31 µM [falling, partial curve]
CCOC(=O)C1(P(=O)(c2ccccc2)c2ccccc2)CCC1	2.03	2.06 µM [falling, partial curve, poor fit]	0.58 µM [falling, single point]
CCC(=O)N1CCCc2cc(S(=O)(=O)N3CCN(C4CCCCC4)CC3)ccc21			6.51 µM [rising, single point]
COc1ccccc1CNC(=O)C(NC(=O)c1ccccc1C)C(C)C (stereo unspecified)	6.85		
FC(F)(F)c1cc(-c2ccco2)nc(N2CCOCC2)n1	-17.9		2.06 µM [rising, partial curve, poor fit]
CCOc1ccc(Cl)cc1S(=O)(=O)N1CCC(C(=O)NC2CC2)CC1	18.1		
COc1cc(-c2cc(C(=O)Nc3cccc(S(=O)(=O)N(C)C)c3)c3ccccc3n2)cc(OC)c1OC	-1.32		1.12 µM [falling, partial curve]
O=C(O)COc1ccc(NC(=O)c2ccc3c(c2)C(=O)N(C2CCCCC2)C3=O)cc1	-0.54		18.4 µM [falling, single point]
Cc1ccc(S(=O)(=O)N2CCN(Cc3cc(C(C)C)ccc3O)CC2)cc1	-30.1	32.6 µM [falling, single point]	25.9 µM [falling, single point]
NC(=O)c1ccc(-c2ncc(-c3ccccc3)o2)cc1	-19.8	0.0291 µM [falling, full curve, poor fit]	
c1ccc(-c2csc3ncnc(NCCCN4CCOCC4)c23)cc1	-21.5		14.6 µM [falling, single point]
Cc1nnc(NC2(C(F)(F)F)C(=O)Nc3c2c(=O)n(C)c(=O)n3C)s1 (stereo unspecified)	-124	8.2 µM [falling, partial curve]	29.1 µM [falling, single point]

Quoted from the listing:
Entry for Cc1nnc(NC2(C(F)(F)F)C(=O)Nc3c2c(=O)n(C)c(=O)n3C)s1 (stereo unspecified) under AC50 [1]: 8.2 µM [falling, partial curve]
Entry for O=C(NCCCN1CCCCCC1)c1cc2c(=O)oc3ccccc3c2s1 under cell number change [%]: -5.56

More results:

Compound	cell number change [%]	AC50 [1]	AC50 [2]
COc1ccc(CN(C(=O)CN2C(=O)NC3(CCC(C)CC3)C2=O)C(C)Cc2cccs2)cc1 (stereo unspecified)	-4.4		0.92 µM [falling, single point]
C=CCNC(=S)N/N=C/c1ccc(C(F)(F)F)cc1	-27.9	0.82 µM [rising, single point]	29.1 µM [falling, single point]
CC(C)(C)OC(=O)NCCC(=O)Oc1ccc2ccc(=O)oc2c1	-10.9	0.0259 µM [falling, full curve, poor fit]	0.0291 µM [falling, full curve]
O=C1C/C(=C\c2c(F)cccc2Cl)N2CCC1CC2	-24.3	0.13 µM [falling, full curve]	3.66 µM [falling, single point]
O=C(CNC(=S)N(CCCN1CCOCC1)Cc1cccs1)NCc1ccc(Cl)cc1			1.84 µM [falling, full curve, poor fit]
Cc1[nH]nc2c1C(c1ccc3c(c1)OCO3)C(C#N)=C(N)O2 (stereo unspecified)		4.61 µM [rising, single point]	6.51 µM [rising, single point]
CCC(=O)N1CCN=C1SCc1ccccc1Cl	-9.4		
C=CCn1c(=O)c2c(nc3n2CCCN3CCc2ccc(OC)c(OC)c2)n(C)c1=O	-7.8		
COc1ccc(C2C(C(=O)c3ccc(C)o3)=C(O)C(=O)N2Cc2cccnc2)cc1 (stereo unspecified)	-5.71		6.51 µM [falling, single point]
CCc1nnc2sc(-c3ccc(NC(=O)c4ccco4)cc3)nn12	-42.1	13 µM [falling, partial curve]	8.2 µM [falling, partial curve]
Cc1ccc(-c2c[n+](CC(=O)Nc3cc(=O)n(C)c(=O)n3C)c3n2CCC3)cc1	-2.9	5.8 µM [falling, single point]	
O=C(NCC1CCCO1)c1ccc2c(=O)n(CC3CCCO3)c(=S)[nH]c2c1 (stereo unspecified)	10.4		6.51 µM [rising, single point]
CCOC(=O)CCSCC(=O)Nc1cc(C)on1			6.51 µM [rising, single point]
Cc1ccc(-c2csc(N3CCC(C(N)=O)CC3)n2)cc1	8.02	1.16 µM [rising, single point]	
Cn1c2ccccc2c(=O)c2c(=O)n(Cc3ccccc3)c(-c3ccc(F)cc3)nc21	11.8		
O=C(CSc1ncn[nH]1)Nc1ccc(Cl)c(Cl)c1			10.3 µM [rising, partial curve]
O=C(OCc1ccc(Br)cc1)c1cccc(-c2nnc(-c3ccccc3)o2)c1			29.1 µM [rising, single point]
COc1ccc(/C=C(\NC(=O)c2cccs2)C(=O)N2CCOCC2)cc1OC		4.61 µM [rising, single point]	0.00411 µM [rising, full curve, poor fit]
CS(=O)(=O)N1CCN(c2nc(-c3ccccc3)cs2)CC1	28.8		

— PubChem BioAssay AID2685 (National Center for Advancing Translational Sciences (NCATS), 2010)
